Results from the supplement of paper PMC10849652.
Some of the results follow.

The chains behind the UniProt entries cited, without tags or fusion partners. Where a name states a change or a piece, a line headed by the entry shows the natural chain unless it says otherwise.
UniProt Q9NS23: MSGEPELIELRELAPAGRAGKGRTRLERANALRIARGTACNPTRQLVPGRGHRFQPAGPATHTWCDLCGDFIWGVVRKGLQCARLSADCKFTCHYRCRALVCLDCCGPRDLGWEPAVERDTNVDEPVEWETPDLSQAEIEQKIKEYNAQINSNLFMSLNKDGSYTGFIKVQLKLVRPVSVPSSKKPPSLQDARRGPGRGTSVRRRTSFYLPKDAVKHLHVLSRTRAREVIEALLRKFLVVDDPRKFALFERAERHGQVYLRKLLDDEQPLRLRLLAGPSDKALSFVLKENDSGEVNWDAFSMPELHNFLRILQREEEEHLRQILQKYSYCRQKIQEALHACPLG
UniProt Q9H6Z4: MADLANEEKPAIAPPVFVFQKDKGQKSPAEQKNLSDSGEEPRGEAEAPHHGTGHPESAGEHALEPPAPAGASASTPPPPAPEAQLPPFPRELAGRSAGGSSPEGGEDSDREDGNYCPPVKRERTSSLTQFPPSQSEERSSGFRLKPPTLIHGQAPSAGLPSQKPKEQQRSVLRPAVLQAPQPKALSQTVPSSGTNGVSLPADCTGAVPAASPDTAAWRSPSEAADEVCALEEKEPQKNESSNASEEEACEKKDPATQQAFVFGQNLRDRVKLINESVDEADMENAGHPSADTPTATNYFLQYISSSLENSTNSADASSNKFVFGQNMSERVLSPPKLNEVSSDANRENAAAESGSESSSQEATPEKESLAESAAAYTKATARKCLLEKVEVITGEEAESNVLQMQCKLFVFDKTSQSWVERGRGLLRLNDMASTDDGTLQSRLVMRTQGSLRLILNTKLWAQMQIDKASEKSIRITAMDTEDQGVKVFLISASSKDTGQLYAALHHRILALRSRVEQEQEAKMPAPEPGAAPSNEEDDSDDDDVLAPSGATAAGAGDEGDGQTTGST
UniProt O95716: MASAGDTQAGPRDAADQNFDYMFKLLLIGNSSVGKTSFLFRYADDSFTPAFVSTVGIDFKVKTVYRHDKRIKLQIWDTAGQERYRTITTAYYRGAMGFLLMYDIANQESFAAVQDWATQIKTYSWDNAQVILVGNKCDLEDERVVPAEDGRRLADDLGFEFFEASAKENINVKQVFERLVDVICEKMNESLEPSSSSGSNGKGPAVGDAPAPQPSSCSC
UniProt O15315: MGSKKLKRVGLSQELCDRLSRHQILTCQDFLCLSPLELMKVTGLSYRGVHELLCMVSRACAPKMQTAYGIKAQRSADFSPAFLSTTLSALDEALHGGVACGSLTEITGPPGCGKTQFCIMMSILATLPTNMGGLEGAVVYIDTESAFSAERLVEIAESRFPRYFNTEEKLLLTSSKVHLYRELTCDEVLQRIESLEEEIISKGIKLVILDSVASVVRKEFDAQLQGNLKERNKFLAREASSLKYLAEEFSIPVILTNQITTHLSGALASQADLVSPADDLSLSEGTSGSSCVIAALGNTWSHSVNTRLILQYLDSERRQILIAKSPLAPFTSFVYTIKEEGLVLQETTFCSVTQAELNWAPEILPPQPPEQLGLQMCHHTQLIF
UniProt Q7Z5J4: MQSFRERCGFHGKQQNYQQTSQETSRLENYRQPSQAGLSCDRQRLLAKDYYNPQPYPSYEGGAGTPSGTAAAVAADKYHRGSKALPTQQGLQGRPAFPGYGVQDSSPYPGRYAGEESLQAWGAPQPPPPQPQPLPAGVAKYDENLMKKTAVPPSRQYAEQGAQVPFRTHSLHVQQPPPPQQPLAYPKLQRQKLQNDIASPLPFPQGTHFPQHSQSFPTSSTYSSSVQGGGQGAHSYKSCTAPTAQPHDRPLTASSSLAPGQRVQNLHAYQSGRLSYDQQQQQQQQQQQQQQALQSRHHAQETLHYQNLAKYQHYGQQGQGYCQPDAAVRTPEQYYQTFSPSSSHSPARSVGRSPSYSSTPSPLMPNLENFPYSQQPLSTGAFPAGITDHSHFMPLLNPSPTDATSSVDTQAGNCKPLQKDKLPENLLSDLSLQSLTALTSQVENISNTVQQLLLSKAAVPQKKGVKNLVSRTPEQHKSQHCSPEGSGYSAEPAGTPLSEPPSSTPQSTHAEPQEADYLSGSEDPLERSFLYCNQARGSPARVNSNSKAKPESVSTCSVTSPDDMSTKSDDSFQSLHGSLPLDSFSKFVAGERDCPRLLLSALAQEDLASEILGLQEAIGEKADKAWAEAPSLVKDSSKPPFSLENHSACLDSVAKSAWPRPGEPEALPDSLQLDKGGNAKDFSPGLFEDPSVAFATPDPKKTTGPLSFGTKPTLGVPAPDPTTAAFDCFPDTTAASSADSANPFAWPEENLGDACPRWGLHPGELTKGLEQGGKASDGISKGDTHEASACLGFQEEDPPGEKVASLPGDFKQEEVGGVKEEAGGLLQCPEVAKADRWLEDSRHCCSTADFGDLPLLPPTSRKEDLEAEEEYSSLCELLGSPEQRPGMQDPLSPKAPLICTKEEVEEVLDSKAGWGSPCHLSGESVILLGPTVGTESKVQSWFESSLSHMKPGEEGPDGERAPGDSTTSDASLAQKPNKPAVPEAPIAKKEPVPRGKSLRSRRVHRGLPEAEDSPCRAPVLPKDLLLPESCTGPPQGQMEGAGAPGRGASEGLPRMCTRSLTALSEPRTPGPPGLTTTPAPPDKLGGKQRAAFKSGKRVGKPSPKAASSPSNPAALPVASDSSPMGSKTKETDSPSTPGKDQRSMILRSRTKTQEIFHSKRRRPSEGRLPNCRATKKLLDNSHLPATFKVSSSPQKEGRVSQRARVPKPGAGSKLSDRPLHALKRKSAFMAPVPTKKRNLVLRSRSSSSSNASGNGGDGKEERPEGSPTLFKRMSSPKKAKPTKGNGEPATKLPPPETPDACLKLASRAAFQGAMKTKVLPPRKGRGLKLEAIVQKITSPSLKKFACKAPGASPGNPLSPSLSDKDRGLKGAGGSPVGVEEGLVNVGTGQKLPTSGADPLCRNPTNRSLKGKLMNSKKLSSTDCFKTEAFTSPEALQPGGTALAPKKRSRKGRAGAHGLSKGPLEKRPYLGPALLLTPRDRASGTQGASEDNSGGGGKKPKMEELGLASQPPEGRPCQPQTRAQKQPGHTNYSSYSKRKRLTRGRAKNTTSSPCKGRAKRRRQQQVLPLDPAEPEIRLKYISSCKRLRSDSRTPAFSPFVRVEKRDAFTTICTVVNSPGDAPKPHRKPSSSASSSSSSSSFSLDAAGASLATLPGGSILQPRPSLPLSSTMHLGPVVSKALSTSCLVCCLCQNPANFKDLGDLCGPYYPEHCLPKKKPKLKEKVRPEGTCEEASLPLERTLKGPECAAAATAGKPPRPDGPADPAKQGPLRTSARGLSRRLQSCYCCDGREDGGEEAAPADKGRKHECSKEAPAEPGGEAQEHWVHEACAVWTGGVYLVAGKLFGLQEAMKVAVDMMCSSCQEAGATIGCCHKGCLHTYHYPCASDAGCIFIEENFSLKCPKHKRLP
UniProt Q99708: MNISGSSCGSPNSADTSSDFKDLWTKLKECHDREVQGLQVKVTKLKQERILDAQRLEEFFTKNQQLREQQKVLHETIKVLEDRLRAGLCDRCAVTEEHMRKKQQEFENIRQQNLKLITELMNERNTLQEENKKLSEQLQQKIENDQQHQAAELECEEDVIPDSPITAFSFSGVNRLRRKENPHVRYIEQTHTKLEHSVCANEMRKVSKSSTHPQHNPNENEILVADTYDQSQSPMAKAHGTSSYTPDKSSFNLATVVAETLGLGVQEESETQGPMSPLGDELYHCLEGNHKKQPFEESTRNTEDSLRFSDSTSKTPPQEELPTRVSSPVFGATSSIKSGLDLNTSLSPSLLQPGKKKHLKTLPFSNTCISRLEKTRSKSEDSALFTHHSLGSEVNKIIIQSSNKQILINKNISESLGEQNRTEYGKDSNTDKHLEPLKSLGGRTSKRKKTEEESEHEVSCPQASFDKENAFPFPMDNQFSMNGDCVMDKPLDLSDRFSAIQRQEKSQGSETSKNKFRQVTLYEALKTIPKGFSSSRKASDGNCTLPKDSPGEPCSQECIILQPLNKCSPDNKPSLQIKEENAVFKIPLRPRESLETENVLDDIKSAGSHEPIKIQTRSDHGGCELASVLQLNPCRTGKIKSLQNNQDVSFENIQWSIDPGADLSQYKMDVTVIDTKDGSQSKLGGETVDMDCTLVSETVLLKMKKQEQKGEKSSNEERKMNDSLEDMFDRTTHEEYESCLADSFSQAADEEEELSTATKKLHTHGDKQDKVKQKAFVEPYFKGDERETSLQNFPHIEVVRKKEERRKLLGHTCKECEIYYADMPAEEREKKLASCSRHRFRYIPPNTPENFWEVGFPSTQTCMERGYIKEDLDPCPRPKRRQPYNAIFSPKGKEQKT
UniProt O75884: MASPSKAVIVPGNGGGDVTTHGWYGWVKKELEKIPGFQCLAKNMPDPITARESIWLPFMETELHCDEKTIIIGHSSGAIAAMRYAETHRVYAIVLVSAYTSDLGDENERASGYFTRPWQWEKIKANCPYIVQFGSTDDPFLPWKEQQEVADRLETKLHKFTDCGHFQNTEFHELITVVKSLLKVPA
UniProt A4D1S5: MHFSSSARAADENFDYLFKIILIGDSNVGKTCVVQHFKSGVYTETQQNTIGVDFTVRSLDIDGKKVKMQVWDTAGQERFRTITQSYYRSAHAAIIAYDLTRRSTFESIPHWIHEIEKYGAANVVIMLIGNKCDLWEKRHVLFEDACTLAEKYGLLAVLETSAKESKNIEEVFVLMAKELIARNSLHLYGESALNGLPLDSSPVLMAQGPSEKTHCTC
UniProt P28749: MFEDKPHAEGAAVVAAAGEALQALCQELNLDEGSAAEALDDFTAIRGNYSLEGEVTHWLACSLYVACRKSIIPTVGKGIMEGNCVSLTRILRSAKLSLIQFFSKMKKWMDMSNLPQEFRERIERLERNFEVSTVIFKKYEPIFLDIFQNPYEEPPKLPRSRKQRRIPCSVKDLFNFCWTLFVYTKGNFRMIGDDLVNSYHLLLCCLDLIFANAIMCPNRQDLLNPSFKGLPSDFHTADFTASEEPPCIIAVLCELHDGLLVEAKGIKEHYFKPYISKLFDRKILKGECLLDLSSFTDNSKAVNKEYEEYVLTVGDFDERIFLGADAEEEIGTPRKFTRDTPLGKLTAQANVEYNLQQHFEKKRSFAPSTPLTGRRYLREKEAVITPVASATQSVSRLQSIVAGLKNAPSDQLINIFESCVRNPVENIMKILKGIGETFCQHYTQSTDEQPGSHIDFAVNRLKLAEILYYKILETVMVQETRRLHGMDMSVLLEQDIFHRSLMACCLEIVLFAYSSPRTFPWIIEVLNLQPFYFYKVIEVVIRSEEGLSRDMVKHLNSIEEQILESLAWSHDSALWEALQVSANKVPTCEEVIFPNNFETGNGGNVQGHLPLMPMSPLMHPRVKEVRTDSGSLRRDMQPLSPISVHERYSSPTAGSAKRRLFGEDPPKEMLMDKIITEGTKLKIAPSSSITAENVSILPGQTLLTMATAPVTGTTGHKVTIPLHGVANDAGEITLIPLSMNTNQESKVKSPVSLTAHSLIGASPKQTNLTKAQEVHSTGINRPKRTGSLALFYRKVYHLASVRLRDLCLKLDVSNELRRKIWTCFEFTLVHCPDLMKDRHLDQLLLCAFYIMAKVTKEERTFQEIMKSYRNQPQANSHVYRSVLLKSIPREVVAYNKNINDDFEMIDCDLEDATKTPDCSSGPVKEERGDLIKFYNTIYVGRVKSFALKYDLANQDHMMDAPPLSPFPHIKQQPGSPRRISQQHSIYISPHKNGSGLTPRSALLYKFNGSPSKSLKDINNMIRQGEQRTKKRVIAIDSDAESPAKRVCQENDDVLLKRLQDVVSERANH

Columns and labels:
Assay in all cases: log2 fold change, soluble protein after heating vs DMSO (PISA); higher = thermal stabilisation; K562 cells, 10 uM, 30 min; active = over 0.2 and 3.5 SD of the protein, either way, in both replicates (recomputed)
[1] = compound: CC1=C(C=C(C=C1)NC(=O)C2=CC(=CC=C2)C(C)(C)C#N)NC3=CC4=C(C=C3)N=CN(C4=O)C
Procedure, shortened: (§1)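 K562 cells (2×10^6 cells/mL) were treated with 10 μM compound for 30 min, and aliquots were heated for 3 min over 48°C-58°C. Pooled aliquots were extracted in PBS with 0.5% NP-40 at 4°C, and the supernatant after 21,000xg for 90 min was measured by TMTpro 16plex LC-MS/MS with channel sums equalised. Reported thermal stability, relative to control samples and from duplicates, is a log2 fold change.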

[2] = compound: CC1=C(C=C(C=C1)NC(=O)C2=CC(=CC=C2)N(C)C)NC(=O)C3=CC=C(C=C3)O
Procedure, shortened: as §1

vemurafenib = compound: CCCS(=O)(=O)Nc1ccc(F)c(C(=O)c2c[nH]c3ncc(-c4ccc(Cl)cc4)cc23)c1F [vemurafenib]
Procedure, shortened: as §1

[3] = compound: CCCc1cc(C)[nH]c(=O)c1CNC(=O)c1cc(-c2ccnc(N3CCN(C)CC3)c2)cc2c1cnn2C(C)C
Procedure, shortened: as §1

givinostat = compound: CCN(CC)Cc1ccc2cc(COC(=O)Nc3ccc(C(=O)NO)cc3)ccc2c1 [givinostat]
Procedure, shortened: as §1

barasertib = compound: CCN(CCCOc1ccc2c(Nc3cc(CC(=O)Nc4cccc(F)c4)[nH]n3)ncnc2c1)CCOP(=O)(O)O [barasertib]
Procedure, shortened: as §1

[4] = compound: CC1=NC(=CC=C1)C2=C(N=C(N2)C(C)(C)C)C3=CC4=NC=CN=C4C=C3
Procedure, shortened: as §1

[5] = compound: CC1=CC=C(C=C1)SC2=C3C=C(SC3=CN=C2)C(=O)N
Procedure, shortened: as §1

[6] = compound: CCCS(=O)(=O)Nc1ccc(F)c(C(=O)c2c[nH]c3ncc(Cl)cc23)c1F
Procedure, shortened: as §1

Nexturastat A = compound: CCCCN(Cc1ccc(C(=O)NO)cc1)C(=O)Nc1ccccc1 [Nexturastat A]
Procedure, shortened: as §1

Measured: log2 fold change

RASSF1 (UniProt Q9NS23)
inactive: [1] 0.063 | [2] 0.065 | vemurafenib -0.215

RANBP3 isoform 2 (UniProt Q9H6Z4)
inactive: [1] 0 | [3] -0.04 | givinostat -0.014 | barasertib -0.01

RAB18 (UniProt H0Y6T8)
inactive: [4] 0.051 | vemurafenib -0.065 | [3] -0.464 | barasertib -0.012

RAB3D (UniProt O95716)
inactive: [2] 0.074 | [5] 0.036 | vemurafenib -0.113 | [6] 0.094 | [3] 0.032 | givinostat -0.08 | barasertib 0.034

RAP1B (UniProt F5GZG1)
inactive: [1] -0.171 | [5] -0.048 | [4] -0.029 | Nexturastat A 0.006 | vemurafenib -0.029 | [6] -0.227 | [3] -0.105 | givinostat 0.139 | barasertib 0.039

RAD51B (UniProt O15315)
inactive: [1] 0.053 | [5] -0.012 | Nexturastat A -0.048 | [6] 0.046 | [3] 0.006 | givinostat -0.05 | barasertib 0.093

RAI1 (UniProt Q7Z5J4)
inactive: [1] -0.335 | [2] 0.35 | Nexturastat A 0.169 | [3] -0.147 | givinostat 0.168 | barasertib 0.2

RBBP8 isoform 2 (UniProt Q99708)
inactive: [5] 0 | [4] -0.066 | [6] 0.009 | givinostat 0.059

RBBP9 (UniProt O75884)
inactive: [1] 0.07 | Nexturastat A 0.012 | vemurafenib 0.178 | [3] -0.371

RAB19 isoform 2 (UniProt A4D1S5)
inactive: [1] -0.251 | [4] -0.057 | Nexturastat A -0.001 | barasertib -0.091

RBL1 (UniProt P28749)
inactive: givinostat 0.301 | barasertib -0.052

Two entries drawn at random from the list so far, as already listed:
RAI1 (UniProt Q7Z5J4)
inactive: [1] -0.335 | [2] 0.35 | Nexturastat A 0.169 | [3] -0.147 | givinostat 0.168 | barasertib 0.2

RBBP9 (UniProt O75884)
inactive: [1] 0.07 | Nexturastat A 0.012 | vemurafenib 0.178 | [3] -0.371
